Assay results as given in PMC9206729.
For at least one entry, the source does not settle the construct or the ends of the probe. No signal at the amounts used counts as a negative. Where a protein sequence is shown, tags need not be part of it.

Key:
[1] = target: T1, His6-GlnR (Saccharopolyspora erythraea) (UniProt A4FQD5); assay: EMSA; settings: EMSA as in Xu et al. (binding buffer, pH and temperature not stated), 6% native PAGE, 0.5x TBE, ice bath, 120 V, recombinant protein, protein details: His6, label: 5'-biotin, probe letters rebuilt from the primers and the genome
T1 sequence (looked up, limits assumed): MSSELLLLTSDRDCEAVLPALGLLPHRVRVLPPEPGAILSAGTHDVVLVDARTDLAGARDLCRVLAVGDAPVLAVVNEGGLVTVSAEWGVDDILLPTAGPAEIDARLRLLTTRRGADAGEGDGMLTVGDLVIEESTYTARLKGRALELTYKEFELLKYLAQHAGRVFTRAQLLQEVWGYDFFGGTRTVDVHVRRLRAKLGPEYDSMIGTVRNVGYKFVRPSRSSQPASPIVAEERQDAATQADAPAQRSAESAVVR

[2] = tested on: T2, His6-PhoP (Saccharopolyspora erythraea); assay: EMSA; settings: EMSA as in Xu et al. (binding buffer, pH and temperature not stated), 6% native PAGE, 0.5x TBE, ice bath, 120 V, recombinant protein, protein details: His6, label: 5'-biotin, probe letters rebuilt from the primers and the genome
T2 sequence (looked up, limits assumed): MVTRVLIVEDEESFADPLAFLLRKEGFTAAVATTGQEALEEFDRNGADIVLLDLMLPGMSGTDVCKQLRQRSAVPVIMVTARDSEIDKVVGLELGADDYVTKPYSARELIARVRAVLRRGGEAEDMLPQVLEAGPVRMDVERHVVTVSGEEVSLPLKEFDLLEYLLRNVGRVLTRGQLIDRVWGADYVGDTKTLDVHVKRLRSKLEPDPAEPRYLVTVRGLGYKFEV

[3] = 0.2 and 0.4 uM protein, specific and non-specific competitor controls

| Sequence | binding result [1, 3] | binding result [2, 3] | binding result ([1]; up to 0.4 uM protein) | binding result ([2]; up to 0.4 uM protein) |
| --- | --- | --- | --- | --- |
| AGCCAGTGGCGATAAGAGACCGTGGACTTCGAGGATCTCAGCGAGTACCTGCCGGTGCACTACGGCCGGGTGCTGGAGGTGCTGGAGAGCCGCGAACAGGAGCTCTCCGACCGCATCGGCGAGGATTACCGGAACCGGATGAAGACCGGCCTGCGCAACTGGGTCGAAGCGGGCAACGCGGGCAACCTGGCGTGGGGGATCTTCCATGCGCAGTCTTGACAGTGACCGTCCGTACGCAAGGATCGAAGCCGAAACCGCTGTGAGGTGAGGATCAGCCGTGAGTGAGATCAACCGCAGGTTGTTCACGAGTGAGTCGGTGACCGAGGGTCACCCCGACAAGATGTGCGACGCGATCAGCGACTCCATCTTATCGCCACTGGCT (double strand) [SACE_3900 promoter probe] | binds | binds |  |  |
| AGCCAGTGGCGATAAGCCGCAAGGCCTGCGACCTGCTGGTCGTCAACGCCGTCGGCGAAGGCGGCGCCTTCGAGGGCGAGGACAACGGGGGCTGGCTGCTCGCCGCCGACGGCGCCGAGAGCCCGATCCGCCACGGCTCCAAGTCGCTGCTAGCGTCCACATTGTGGGATGCGGTGAGCCTGCGGCTGGGGCGACAGTAACCTCGAAGCCAAATCTTCAGAGCATTTCCCGCCGCACCGCACCGGCGGCGTAGTCTTCGAACCATCCAGGGAGAGTTGTGAGTCAGCAGCATGACCTGCGCGGAGCCGGCCGCAGGTTGTTCACCAGTGAGTCCGTGACCGAAGGGCACCCGGACAAGATCTGCGACGCGATCAGCCTTATCGCCACTGGCT (double strand) [SACE_2103 promoter probe] |  |  | no binding | no binding |
